Measured values as given in the supplement of paper PMC3334620.
The full ranking holds about 33,000 sequences; the median of “E-score (-0.5 to 0.5)” is about -0.0034, and the highest 2% start at about 0.25. The list shows a part of the results.

The sequences below were run against T1, Yap3 (UniProt P38749) (assay: PBM E-score (8-mer binding enrichment) (E-score (-0.5 to 0.5)); higher = stronger / more preferred TF binding). Conditions: protein concentration: 100 nM; construct: GST-full length.
T1 sequence: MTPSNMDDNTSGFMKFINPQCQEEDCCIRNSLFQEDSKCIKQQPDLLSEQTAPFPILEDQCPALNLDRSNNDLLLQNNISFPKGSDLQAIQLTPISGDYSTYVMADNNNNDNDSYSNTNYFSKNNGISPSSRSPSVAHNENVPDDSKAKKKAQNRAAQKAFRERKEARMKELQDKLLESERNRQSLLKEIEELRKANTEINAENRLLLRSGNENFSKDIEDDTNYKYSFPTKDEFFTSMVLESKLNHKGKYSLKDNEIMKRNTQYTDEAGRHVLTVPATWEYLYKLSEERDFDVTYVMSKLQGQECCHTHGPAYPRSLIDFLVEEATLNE
Method in brief: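 Universal all-10-mer Agilent arrays, fresh or stripped once, were converted to double-stranded form by primer extension. GST-tagged yeast transcription factors from PURExpress in vitro transcription/translation, full-length or DNA-binding domain only, were applied at about 100-200 nM and detected with fluorescent anti-GST. After masliner normalisation, the Universal PBM Analysis Suite scored each ungapped eight-base word together with its reverse complement by E-score.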

Sequence	PBM E-score
TACATGGA	-0.0383
AGAATGCT	0.0575
GAAAAGTC	-0.0826
AAGAGAGG	-0.163
GAGCCTAC	0.0122
ATGAAACG	0.19
CCCCGTAA	0.0063
ATTATTGA	0.0643
CCAGCCAC	-0.0712
GGAATAAC	0.13
ATGTGGAA	0.133
CCTCTTAG	0.213
CTGGTTAA	0.0965
TAGGGATA	0.0595
GAAGCCGA	-0.0633
AGACGCCG	-0.0447
ACTTCAGA	-0.0393
TAGCGCCA	0.00697
GACAACCA	0.145
CGGTCAAC	0.101
CAACTGAG	0.0815
AATACACA	0.131

Sequence	PBM E-score
CCCTCCGC	-0.249
CGGCCCAC	-0.21
GGCATCGA	-0.125
AGTAATTA	0.307
CCTCCTTA	-0.186
AGACGAGG	-0.208
CTATCCCA	-0.02
ACCTATGG	-0.00983
GAGAAACC	0.0456
AACCGGTG	-0.113
ACGTGTGA	0.0975
ATCGCGTA	0.193
TAAACGTA	0.161
AACTCTTC	-0.0557
ATAACGCC	0.0798
ACTGTTCG	-0.00589
TAGTTTGA	0.141
CTCGTACA	0.024
CACTCGCG	0.0756
CGGGAATC	-0.0921
GCTGGGCC	-0.325
TATTCACA	0.27

Sequence	PBM E-score
AGCAAGCA	-0.198
AACTGTGT	0.171
GCTTGACA	0.0205
GGTTACCA	0.187
TCCATGAA	-0.0172
CGAGCAAC	-0.0655
ACGGCCAT	-0.195
GCCCCCGC	-0.369
GACGCTGA	-0.0739
CGGCCAAA	-0.117
GTCGATTA	0.093
TCACGTAA	0.359
CTGTTAAG	-0.044
ATTGTTAA	0.17
CACCGCTA	-0.11
CCTGTTAA	-0.0168
ATAGAACA	0.14
AGAGTGTA	-0.109
AAAGGTCT	-0.0778
ACTAAGGC	-0.0835
CCGTGTTA	0.0372
ACCTTTAG	-0.103

Sequence	PBM E-score
ATGTACTA	0.104
CCAATCAG	-0.251
AGCGGCAG	-0.176
CGTCACTA	0.143
CTGGTCGC	-0.0563
CGTCGGGA	-0.0475
ATTGGCAA	0.188
GTAGCGGA	-0.0099
TAGAGGAA	-0.144
AAAGCGCT	0.182
ATCACGCA	-0.0606
ACGCGGAT	0.107
ATTTCCCG	0.231
GGCTGAGA	-0.00882
AAAAACAA	0.28
CGTCCTCA	-0.0347
ACCCCCTC	-0.404
CCATGGTC	-0.151
GACAACTC	0.0164
ATGGCGAA	0.204
ATGCAGAG	-0.234
ATATGGAG	0.264

4 consecutive records from above, for reference:
Sequence	PBM E-score
GTAGCGGA	-0.0099
TAGAGGAA	-0.144
AAAGCGCT	0.182
ATCACGCA	-0.0606

Shown as comma-separated lines: entries from further up
Sequence,PBM E-score
GGCTGAGA,-0.00882
GACAACTC,0.0164

Additional records:

Sequence	PBM E-score
GATCCCGA	-0.0358
CCCCCGGC	-0.413
CACGGCTG	-0.277
GTCCATCA	-0.0672
AGGTCCCG	-0.114
GTAAGGCA	0.0101
CGCACCAA	-0.106
ACGAATTC	0.0442
GGGATCGA	-0.124
ACCGTACC	-0.0736
GTACCGAA	0.037
AGCTGGGG	-0.214
CAGCCCCC	-0.384
CTGGGAGA	-0.155
CTGCATCA	0.0347
CCGCTCAA	-0.0107
AGACACTG	-0.00923
GCCTCCGA	-0.15
ATCAGCGC	0.0141
ATATACAC	0.171
AACAACGG	0.104
AAAGGGGT	-0.163
